# Laboratory results published in PubChem BioAssay AID1671190 (National Center for Advancing Translational Sciences (NCATS), 2021).
# The chains behind the UniProt entries cited, without tags or fusion partners.
# UniProt P18054, whole entry, looked up: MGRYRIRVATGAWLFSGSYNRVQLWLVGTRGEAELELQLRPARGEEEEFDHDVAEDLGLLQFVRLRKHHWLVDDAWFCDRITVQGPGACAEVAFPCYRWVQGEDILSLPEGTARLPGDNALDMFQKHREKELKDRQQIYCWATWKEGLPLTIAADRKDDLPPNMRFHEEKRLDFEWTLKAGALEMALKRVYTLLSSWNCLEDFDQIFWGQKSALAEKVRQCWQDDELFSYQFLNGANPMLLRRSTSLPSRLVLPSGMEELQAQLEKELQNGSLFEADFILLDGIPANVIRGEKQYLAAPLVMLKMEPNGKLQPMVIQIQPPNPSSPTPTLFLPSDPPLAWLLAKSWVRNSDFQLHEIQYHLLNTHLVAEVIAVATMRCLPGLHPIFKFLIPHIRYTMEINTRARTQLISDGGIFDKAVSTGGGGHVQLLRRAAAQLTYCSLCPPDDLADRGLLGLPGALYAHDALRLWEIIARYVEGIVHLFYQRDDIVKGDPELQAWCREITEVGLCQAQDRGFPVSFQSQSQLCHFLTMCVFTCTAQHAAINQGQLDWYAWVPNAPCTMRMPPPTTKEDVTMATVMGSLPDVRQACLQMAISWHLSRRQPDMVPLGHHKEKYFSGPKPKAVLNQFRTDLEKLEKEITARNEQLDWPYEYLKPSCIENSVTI
# Several values for one entry are separate records, joined by “and”; a condition that tells them apart may be missing. Identical values can stand only once. Among all 580,000 compounds or so, about 6,100 (1.1%) were called active. The inconclusive results got no clear call from the source; some entries with a clear call stand among them for comparison. Calls follow the shape of the dose curve; as a rule, active = well fitted inhibition curve with a large enough effect; inconclusive = small, poorly fitted or top-dose-only effect, or another doubt; inactive = no such curve, though single readings can be large or run the other way. Potencies of inconclusive entries are doubtful fits and often do not repeat.
# Target: Polyunsaturated fatty acid lipoxygenase ALOX12 (Homo sapiens) (UniProt P18054)
# Assay: Primary qHTS assay for inhibitors of human arachidonate 12S-lipoxygenase (ALOX12): Round 2
# Conditions: purified 12hLO, xylenol orange hydroperoxide absorbance; activity change, negative = inhibition: at 108 µM (top of the series) unless noted
# In short: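 Purified human 12hLO at 150 nM in 25 mM Hepes, 0.01% Triton X-100, pH 7.0, preincubated 15 min at room temperature with compound. Reaction started with 40 uM arachidonic acid, 30 min at room temperature. Hydroperoxide measured by Fe-xylenol orange, 573/405 nm absorbance ratio.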
# % is scaled to controls: 0 for no effect and ±100 for the full control effect; potency is read from the fitted curve at half-maximal effect.
SMILES,"activity change, negative = inhibition",Potency
CC(C)(C)C(=O)Nc1nnc(Cc2ccccc2)s1,inactive: 19%,
CCCC(=O)OCCC(C)CCC=C(C)C (stereo not given),inactive: 135% [at 176 µM],
COc1ccc(C2=C(C#N)C(=O)OC2)cc1,,"inconclusive: 39.8 µM [inhibitor, partial curve, poor fit]"
CC(C)NC[C@H]1O[C@@H](CO)[C@@H](O)[C@H]1N1CCN(c2ncccn2)CC1,,"inconclusive: 14.1 µM [inhibitor, full curve]"
CCOC(=O)C1CCCN(C(=O)c2cc3c(=O)n(C)c4ccccc4c3s2)C1 (stereo not given),,"inconclusive: 44.7 µM [inhibitor, full curve, poor fit]"
CC1(C)CC(NC(=S)Nc2ccc(Cl)cc2)CC(C)(C)N1,,"inconclusive: 112 µM [inhibitor, single point]"
CSCCC(NS(=O)(=O)c1ccc2c(c1)oc(=O)n2C)C(=O)Nc1ccc(C)cc1Cl (stereo not given),inactive: 34.6%,
Cc1ccc(-c2cc(-c3ccccc3)nc(NN)n2)cc1,,"inconclusive: 50.1 µM [inhibitor, partial curve, poor fit]"
c1ccc2c(c1)CN1C(=N2)COc2ccccc2C1c1nc2ccccc2[nH]1 (stereo not given),,"inconclusive: 35.5 µM [inhibitor, single point]"
N#Cc1cccnc1N1CCN(C(C(=O)O)c2c[nH]c3cc(Cl)ccc23)CC1 (stereo not given),,"inconclusive: 39.8 µM [inhibitor, partial curve, poor fit]"
CN(C)C(=O)c1ccc(-c2nc(NC3CCNCC3)c3ccccc3n2)cc1,,"inconclusive: 56.2 µM [inhibitor, partial curve, poor fit]"
Cc1cccc(C)c1NC(=O)CSc1nnc(Cc2ccccc2)n1-n1cccc1,inconclusive: -30.7% [inhibitor],
CCOC(=O)N1CCN([N+]([O-])=NOc2cc(ON=[N+]([O-])N3CCN(C(=O)OCC)CC3)c([N+](=O)[O-])cc2[N+](=O)[O-])CC1,,"inconclusive: 12.2 µM [inhibitor, partial curve, poor fit]"
COc1ccc(Br)cc1CN(C)C(=O)Cc1ccc(S(=O)(=O)N2CCOCC2)s1,inactive: -20.3%,
C[C@H](CO)N1C[C@H](C)[C@@H](CN(C)Cc2ccc(C(=O)O)cc2)OCCCC[C@H](C)Oc2ccc(NC(=O)CCC(F)(F)F)cc2C1=O,,"inconclusive: 112 µM [inhibitor, single point]"
O=C1N[C@@H]2CCN(C(=O)COc3ccccc3)[C@@H]2C(=O)N1c1ccc(Oc2ccccc2)cc1,,"inconclusive: 50.1 µM [inhibitor, partial curve, poor fit]"
Cc1cccc[n+]1C1C(c2ccc([N+](=O)[O-])cc2)C(C#N)=C(C(=C=[N-])C#N)NC1(O)C1CC1 (stereo not given),inactive: -12.8%,
O=S(=O)(Nc1nc2ccccc2nc1Nc1cccc(F)c1)c1cccc2nsnc12,,"inconclusive: 17.8 µM [inhibitor, single point]"
O=C(O)c1cc2cc(OCc3ccccc3)ccc2[nH]1,inactive: -20.5%,
O=C1c2ccccc2CN1C1CCN([S+](=O)([O-])c2cccc(C(F)(F)F)c2)CC1,inactive: -0.83% [at 6.33 µM],
Cc1cccc(NC(=O)Nc2c(C)n(C)n(-c3ccccc3)c2=O)c1C,inactive: -2.03%,
CCSc1nc(=S)cc(C)[nH]1,,"inconclusive: 15.8 µM [inhibitor, partial curve, poor fit]"

SMILES,"activity change, negative = inhibition",Potency
O=C(NCc1cccs1)c1nc(-c2cccc(C(F)(F)F)c2)c2ccccn12,,"inconclusive: 8.91 µM [inhibitor, partial curve, poor fit]"
CN(C)c1ccc(CNCCC2(O)CCOC(C)(C)C2)cc1 (stereo not given),,"inconclusive: 12.6 µM [inhibitor, full curve, poor fit]"
CSc1nc(-c2ccccc2)[nH]c(=S)c1C(C)=O,,"inconclusive: 44.7 µM [inhibitor, partial curve, poor fit]"
COc1ccc(Cn2c(=S)[nH]c3ccsc3c2=O)cc1,inactive: -8.06%,
CC(c1ccccc1)c1nnc(NC(=O)c2ccc3c(c2)OCO3)s1 (stereo not given),,"inconclusive: 100 µM [inhibitor, single point]"
COC(=O)C1=CN(c2ccc(C(C)(C)C)cc2)C(N)=C(C#N)C1c1cccc2ccccc12 (stereo not given),,"inconclusive: 39.8 µM [inhibitor, partial curve, poor fit]"
O=c1c2ccccc2sc2ccc(NCCCN3CCOCC3)cc12,,active: 14.1 µM
CC(/C=C/C=C(\C)C(=O)O[C@@H]1O[C@H](CO[C@@H]2O[C@H](CO)[C@@H](O)[C@H](O)[C@H]2O)[C@@H](O)[C@H](O)[C@H]1O)=C\C=C\C=C(C)\C=C\C=C(/C)C(=O)O[C@@H]1O[C@H](CO[C@@H]2O[C@H](CO)[C@@H](O)[C@H](O)[C@H]2O)[C@@H](O)[C@H](O)[C@H]1O,,"inconclusive: 39.8 µM [inhibitor, partial curve, poor fit]"
Cc1cc(=O)oc2cc(OCC(=O)NC(Cc3c[nH]c4ccc(O)cc34)C(=O)O)c(Cl)cc12 (stereo not given),inactive: -13%,
Cc1c(Cl)c(C(F)F)nn1CC(=O)NC1C(=O)N2C(C(=O)O)=C(CSc3nnnn3C)CSC12 (stereo not given),inactive: -20.3%,
CCC1(C)Cc2ccccc2/C(=C/C(=O)N2CCCCC2)N1 (stereo not given),,"inconclusive: 35.5 µM [inhibitor, partial curve, poor fit]"
CC(C)NC(=O)CSc1nc(NC2CC2)c2ccccc2n1,inactive: 36.5%,
Clc1ccc(OCCCN2CCCC2)cc1Cl,inactive: -34.8%,
Cc1cccc(NC(=O)/C(C#N)=C/c2cn(CC(=O)NCc3ccco3)c3ccccc23)c1C,,"inconclusive: 100 µM [inhibitor, partial curve, poor fit]"
COc1cccc(Nc2nc(N)nc(C(F)(F)F)n2)c1,inactive: 0%,
Cc1cc(=O)[nH]c(N=N/C(=N/Nc2ccc(O)cc2)c2ccccc2)n1,inactive: 0%,
COc1cc(NC(=O)CSc2nc3nc(C)c(Cc4ccccc4)c(C)n3n2)cc(OC)c1,inactive: -12.7%,
O=C(CN1CCN(c2ccc([N+](=O)[O-])cc2)CC1)Nc1ccccn1,,"inconclusive: 100 µM [inhibitor, partial curve, poor fit]"
COc1cc(CC(=O)NC2CCc3ccccc32)ccc1C (stereo not given),inactive: -5.76%,
O=C(CSc1ncn(-c2ccccc2)n1)Nc1nccs1,,"inconclusive: 15.8 µM [inhibitor, partial curve]"
COc1ccc(-c2c(C#N)c(SCc3c(C)noc3C)nc3c2C(=O)CC(C)(C)C3)cc1,inactive: 7.09%,
CCOc1cc(CN2CCN(C(=O)c3ccco3)CC2)ccc1OC,,"inconclusive: 0.447 µM [inhibitor, full curve, poor fit]"

SMILES,"activity change, negative = inhibition",Potency
CCc1nc2ccccc2c(C(=O)OCC(=O)N2CCCC(C)C2)c1C (stereo not given),,"inconclusive: 44.7 µM [inhibitor, partial curve, poor fit]"
Cc1cccn(Cc2c(Cl)cccc2Cl)c1=O,inactive: 37.6%,
CCOc1cc(/C=C2\NC(=O)NC2=O)cc(Cl)c1O,,"inconclusive: 63.1 µM [inhibitor, partial curve, poor fit]"
COc1ccc(CC(=O)NC(=S)Nc2cccc(CO)c2)cc1,,"inconclusive: 100 µM [inhibitor, partial curve, poor fit]"
O=C(CCCc1ccccc1)N1CCC(Cc2nc(-c3ccc(F)cc3)no2)CC1,,"inconclusive: 50.1 µM [inhibitor, partial curve]"
COc1cccc(-c2cc(NC=O)c3ncc(-c4ccc(F)c(Cl)c4)n3c2)c1,inactive: -29.4%,
N#Cc1ccccc1NC(=O)COC(=O)c1cccs1,inactive: -8.5%,
CCCCN(C)CCN1C(=O)C2C(C(=O)Nc3ccc(C)cc3)C3C=CC2(O3)C1C(=O)NC1CCCCC1 (stereo not given),,"inconclusive: 141 µM [inhibitor, partial curve, poor fit]"
Cc1cc(Cl)ccc1S(=O)(=O)N1CCc2nn(C)c(=O)n2CC1,inactive: 5.02%,
O=C(CCl)N(Cc1ccsc1)C1CC1,,"inconclusive: 44.7 µM [inhibitor, partial curve, poor fit]"
COc1cc(NC(=O)c2oc3ccccc3c2C)ccc1NC(=O)c1ccco1,,"inconclusive: 56.2 µM [inhibitor, partial curve, poor fit]"
Cc1ccc(C(=O)NC(c2ccc(Cl)cc2)c2cccnc2)cc1 (stereo not given),inactive: 10.2%,
Cc1ccc(C)c(SCC(=O)OCC(=O)c2ccco2)c1,,active: 39.8 µM
CCCCCCC[C@H](N)[C@H](O)C(=O)N(C)[C@@H](CCS(C)=O)C(=O)N[C@@H](Cc1ccc(O)cc1)C(=O)N[C@@H](Cc1ccc(O)cc1)C(=O)O (stereo not given in full),,"inconclusive: 28.2 µM [inhibitor, partial curve, poor fit]"
CCOc1cc(NC(=O)c2cccs2)c(OCC)cc1NC(=O)c1ccco1,inactive: 0%,
CCOC(=O)c1cc2c(=O)n3ccccc3nc2n(Cc2ccco2)c1=NC(=O)c1ccccc1OC,,"inconclusive: 70.8 µM [inhibitor, partial curve, poor fit] and inconclusive: 50.1 µM [inhibitor, partial curve, poor fit]"
CCN1CCCC(OC(=O)c2cccc(Br)c2)C1 (stereo not given),,"inconclusive: 56.2 µM [inhibitor, partial curve, poor fit]"
Cc1nc2nc[nH]n2c(=O)c1NS(=O)(=O)c1ccc([N+](=O)[O-])cc1,inconclusive: -40% [inhibitor],
Cc1ccc(NC(=O)Nc2c(NC3CCCCC3)c3ccccc3oc2=O)cc1F,inactive: -0.767%,
CCOC(=O)c1c(C)oc2ccc(O)c(CN(C)C)c12,,"inconclusive: 17.8 µM [inhibitor, partial curve, poor fit]"
O=C1N(C2CCN(Cc3ccncc3F)CC2)C(c2ccncc2)C12CCCCC2 (stereo not given),inactive: 80.9%,
